Measured values reported in the supplement of paper PMC10849652.
This is one part of the list.

By UniProt entry, the sequences of proteins in these tests, tags left out. Where a name states a change or a piece, a line headed by the entry shows the natural chain unless it says otherwise.
UniProt O60331: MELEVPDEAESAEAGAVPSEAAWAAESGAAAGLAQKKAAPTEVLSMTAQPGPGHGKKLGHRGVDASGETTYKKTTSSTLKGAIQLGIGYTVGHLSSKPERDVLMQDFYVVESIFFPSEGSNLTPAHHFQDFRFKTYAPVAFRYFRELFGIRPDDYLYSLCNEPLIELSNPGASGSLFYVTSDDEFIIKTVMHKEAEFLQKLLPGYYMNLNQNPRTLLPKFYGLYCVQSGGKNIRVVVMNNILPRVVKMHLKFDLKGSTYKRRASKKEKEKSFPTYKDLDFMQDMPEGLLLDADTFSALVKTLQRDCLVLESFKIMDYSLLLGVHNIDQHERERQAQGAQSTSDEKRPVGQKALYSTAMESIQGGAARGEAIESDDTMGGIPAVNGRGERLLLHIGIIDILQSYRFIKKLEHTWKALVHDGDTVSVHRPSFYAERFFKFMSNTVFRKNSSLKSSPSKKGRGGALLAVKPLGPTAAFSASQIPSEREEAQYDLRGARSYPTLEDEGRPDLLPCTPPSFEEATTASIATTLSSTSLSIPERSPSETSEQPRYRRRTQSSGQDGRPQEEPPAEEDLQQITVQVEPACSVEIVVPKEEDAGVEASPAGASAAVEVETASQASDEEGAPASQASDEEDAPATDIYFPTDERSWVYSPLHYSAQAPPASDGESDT
UniProt P0C869: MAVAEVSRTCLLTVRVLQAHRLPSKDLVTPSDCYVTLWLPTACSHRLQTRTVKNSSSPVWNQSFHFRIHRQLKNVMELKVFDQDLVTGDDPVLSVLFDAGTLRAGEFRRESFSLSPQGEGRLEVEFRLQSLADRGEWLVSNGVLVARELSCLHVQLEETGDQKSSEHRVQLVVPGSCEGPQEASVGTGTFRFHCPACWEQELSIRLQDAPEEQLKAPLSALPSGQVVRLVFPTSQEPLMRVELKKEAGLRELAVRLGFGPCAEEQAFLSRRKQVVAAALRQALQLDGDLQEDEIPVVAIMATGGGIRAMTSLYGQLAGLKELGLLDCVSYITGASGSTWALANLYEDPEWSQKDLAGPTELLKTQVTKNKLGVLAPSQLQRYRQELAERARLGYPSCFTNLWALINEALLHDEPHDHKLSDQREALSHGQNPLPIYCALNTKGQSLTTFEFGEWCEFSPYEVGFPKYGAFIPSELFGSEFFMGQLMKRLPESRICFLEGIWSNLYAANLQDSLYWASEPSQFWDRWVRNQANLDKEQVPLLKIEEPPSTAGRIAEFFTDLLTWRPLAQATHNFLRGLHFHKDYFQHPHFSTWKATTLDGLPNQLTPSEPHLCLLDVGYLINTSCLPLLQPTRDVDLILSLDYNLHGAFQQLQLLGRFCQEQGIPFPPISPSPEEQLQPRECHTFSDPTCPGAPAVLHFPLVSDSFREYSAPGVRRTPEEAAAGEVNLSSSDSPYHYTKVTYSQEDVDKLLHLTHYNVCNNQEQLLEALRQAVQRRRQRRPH
UniProt O94880: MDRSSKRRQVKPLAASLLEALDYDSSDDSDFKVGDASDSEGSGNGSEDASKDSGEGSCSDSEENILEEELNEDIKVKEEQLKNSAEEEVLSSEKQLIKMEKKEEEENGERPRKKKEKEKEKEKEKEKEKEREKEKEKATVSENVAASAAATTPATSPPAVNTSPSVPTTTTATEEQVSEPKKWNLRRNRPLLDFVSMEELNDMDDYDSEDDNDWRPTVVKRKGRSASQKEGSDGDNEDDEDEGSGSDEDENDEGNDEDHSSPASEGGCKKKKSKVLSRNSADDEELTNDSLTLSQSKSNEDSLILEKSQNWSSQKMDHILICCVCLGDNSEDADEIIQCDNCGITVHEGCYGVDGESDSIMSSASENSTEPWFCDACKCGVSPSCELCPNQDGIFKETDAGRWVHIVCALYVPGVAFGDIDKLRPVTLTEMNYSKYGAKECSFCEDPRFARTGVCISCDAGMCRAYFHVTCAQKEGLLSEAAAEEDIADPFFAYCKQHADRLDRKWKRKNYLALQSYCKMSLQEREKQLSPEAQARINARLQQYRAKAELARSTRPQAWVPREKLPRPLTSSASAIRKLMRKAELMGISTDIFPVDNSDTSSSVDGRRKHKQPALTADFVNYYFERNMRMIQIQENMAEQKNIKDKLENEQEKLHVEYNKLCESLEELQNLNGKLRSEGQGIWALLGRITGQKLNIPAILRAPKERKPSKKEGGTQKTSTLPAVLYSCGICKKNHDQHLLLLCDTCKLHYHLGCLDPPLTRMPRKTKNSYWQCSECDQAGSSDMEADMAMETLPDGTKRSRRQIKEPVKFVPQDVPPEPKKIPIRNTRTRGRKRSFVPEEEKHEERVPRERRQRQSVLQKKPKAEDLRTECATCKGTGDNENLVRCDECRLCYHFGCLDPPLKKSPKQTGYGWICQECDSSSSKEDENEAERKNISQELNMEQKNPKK
UniProt Q8WXW3: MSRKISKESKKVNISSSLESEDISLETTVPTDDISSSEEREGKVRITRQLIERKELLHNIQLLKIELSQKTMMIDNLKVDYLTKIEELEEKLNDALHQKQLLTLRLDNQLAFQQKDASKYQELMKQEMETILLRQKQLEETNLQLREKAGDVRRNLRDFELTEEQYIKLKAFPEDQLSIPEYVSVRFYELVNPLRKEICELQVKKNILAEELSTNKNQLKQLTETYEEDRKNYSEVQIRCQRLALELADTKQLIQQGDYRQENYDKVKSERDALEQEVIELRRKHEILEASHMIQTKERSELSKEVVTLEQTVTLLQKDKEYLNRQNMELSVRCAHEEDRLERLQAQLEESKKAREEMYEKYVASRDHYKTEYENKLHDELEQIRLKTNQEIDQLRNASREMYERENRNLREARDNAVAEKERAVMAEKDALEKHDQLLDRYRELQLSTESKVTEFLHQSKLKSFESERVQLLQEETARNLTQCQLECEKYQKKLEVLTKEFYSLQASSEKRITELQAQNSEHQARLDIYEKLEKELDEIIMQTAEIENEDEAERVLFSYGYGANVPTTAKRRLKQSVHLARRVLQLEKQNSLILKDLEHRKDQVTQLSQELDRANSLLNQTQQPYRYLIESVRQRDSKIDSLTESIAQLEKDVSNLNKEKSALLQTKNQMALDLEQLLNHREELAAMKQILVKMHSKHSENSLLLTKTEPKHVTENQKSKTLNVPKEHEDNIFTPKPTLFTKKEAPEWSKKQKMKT
UniProt Q8TCD6: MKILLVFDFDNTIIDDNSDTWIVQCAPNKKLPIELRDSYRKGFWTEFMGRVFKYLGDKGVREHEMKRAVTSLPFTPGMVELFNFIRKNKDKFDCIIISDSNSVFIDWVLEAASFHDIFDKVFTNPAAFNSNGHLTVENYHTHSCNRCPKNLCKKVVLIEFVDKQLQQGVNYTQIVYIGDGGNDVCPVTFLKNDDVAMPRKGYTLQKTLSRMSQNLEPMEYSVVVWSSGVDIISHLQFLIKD
UniProt Q96BK5: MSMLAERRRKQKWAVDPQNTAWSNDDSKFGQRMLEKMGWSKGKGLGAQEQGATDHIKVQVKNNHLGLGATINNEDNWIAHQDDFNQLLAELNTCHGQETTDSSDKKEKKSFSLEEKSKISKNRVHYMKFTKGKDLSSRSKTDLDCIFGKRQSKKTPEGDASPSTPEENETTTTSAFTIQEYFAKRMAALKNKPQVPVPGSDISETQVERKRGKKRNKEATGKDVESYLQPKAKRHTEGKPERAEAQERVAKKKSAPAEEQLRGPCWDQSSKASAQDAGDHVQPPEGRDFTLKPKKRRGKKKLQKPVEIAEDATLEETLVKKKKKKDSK
UniProt Q16513: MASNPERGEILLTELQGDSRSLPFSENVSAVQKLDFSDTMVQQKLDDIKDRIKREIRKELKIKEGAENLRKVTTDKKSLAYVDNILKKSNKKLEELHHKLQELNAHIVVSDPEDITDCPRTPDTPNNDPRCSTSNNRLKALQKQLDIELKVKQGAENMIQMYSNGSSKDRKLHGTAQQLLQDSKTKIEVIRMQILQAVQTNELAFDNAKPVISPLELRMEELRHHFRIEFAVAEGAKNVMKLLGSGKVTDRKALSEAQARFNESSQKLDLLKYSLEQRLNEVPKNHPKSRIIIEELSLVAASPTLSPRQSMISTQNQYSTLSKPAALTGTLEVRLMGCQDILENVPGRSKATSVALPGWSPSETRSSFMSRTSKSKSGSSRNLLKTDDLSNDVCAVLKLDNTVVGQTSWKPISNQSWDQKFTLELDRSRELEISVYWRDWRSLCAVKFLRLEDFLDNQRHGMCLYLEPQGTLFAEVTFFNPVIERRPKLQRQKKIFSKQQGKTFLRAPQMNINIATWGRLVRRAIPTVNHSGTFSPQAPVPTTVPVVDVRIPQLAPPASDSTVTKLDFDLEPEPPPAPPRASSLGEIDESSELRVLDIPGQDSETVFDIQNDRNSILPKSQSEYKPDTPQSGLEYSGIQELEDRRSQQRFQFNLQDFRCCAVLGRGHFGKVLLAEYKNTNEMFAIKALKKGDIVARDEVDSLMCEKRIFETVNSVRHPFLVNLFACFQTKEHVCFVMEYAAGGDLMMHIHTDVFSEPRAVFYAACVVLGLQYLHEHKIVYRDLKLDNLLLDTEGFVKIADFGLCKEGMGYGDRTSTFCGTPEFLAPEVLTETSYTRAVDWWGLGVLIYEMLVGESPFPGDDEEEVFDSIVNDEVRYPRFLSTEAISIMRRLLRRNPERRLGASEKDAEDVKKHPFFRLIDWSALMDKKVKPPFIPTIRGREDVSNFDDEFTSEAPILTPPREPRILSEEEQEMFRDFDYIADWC
UniProt Q8IUZ5: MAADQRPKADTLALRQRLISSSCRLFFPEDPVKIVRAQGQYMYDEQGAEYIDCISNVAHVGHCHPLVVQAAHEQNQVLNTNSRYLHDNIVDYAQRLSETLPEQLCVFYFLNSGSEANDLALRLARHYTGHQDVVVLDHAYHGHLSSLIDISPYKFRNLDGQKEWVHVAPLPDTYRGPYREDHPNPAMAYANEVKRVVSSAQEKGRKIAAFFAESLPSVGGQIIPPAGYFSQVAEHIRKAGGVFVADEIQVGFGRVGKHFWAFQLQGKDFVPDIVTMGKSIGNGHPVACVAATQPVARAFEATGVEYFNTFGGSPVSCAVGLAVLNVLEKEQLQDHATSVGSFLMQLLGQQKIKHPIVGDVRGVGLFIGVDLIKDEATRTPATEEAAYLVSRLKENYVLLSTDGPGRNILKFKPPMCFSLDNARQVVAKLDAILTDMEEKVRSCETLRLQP
UniProt Q7Z412: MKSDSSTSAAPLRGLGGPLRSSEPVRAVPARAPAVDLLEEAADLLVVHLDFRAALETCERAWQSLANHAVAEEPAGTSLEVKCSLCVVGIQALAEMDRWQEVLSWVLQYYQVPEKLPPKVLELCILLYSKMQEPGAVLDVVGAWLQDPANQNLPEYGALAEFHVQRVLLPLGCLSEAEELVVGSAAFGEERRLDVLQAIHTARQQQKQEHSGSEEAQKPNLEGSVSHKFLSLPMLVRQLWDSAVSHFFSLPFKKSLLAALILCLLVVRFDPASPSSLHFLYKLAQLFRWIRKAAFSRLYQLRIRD
UniProt P42336, whole entry, looked up: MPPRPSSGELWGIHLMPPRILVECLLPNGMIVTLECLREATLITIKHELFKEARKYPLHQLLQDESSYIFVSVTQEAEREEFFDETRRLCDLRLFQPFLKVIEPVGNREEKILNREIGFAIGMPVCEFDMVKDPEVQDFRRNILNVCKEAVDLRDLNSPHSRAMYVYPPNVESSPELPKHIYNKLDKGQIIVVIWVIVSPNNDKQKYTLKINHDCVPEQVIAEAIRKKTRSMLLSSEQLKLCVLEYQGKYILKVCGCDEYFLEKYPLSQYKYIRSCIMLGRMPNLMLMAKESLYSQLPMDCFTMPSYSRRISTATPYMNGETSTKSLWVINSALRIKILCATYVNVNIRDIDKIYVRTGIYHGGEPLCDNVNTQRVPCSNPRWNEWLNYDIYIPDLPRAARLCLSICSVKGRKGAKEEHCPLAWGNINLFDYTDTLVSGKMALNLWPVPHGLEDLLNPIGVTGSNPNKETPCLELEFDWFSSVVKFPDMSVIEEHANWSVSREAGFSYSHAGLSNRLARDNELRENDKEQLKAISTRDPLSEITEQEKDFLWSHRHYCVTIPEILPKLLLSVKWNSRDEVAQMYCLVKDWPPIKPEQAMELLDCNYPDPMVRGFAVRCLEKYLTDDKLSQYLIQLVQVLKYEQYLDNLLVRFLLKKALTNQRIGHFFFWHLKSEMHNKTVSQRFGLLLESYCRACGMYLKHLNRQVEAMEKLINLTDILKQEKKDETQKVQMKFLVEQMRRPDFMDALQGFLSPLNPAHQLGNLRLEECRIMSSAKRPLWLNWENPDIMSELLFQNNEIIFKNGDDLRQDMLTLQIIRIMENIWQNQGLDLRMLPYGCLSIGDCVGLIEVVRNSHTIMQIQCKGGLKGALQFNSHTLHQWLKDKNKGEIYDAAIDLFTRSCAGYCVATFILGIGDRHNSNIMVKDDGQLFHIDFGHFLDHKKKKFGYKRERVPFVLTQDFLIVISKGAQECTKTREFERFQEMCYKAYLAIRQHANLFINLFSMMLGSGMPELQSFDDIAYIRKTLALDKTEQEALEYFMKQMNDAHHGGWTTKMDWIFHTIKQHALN

What follows are targets tested with CN1CCN(CCOc2cc(OC3CCOCC3)c3c(Nc4c(Cl)ccc5c4OCO5)ncnc3c2)CC1 [saracatinib] (assay: log2 fold change, soluble protein after heating vs DMSO (PISA); higher = thermal stabilisation; K562 cells, 10 uM, 30 min; active = over 0.2 and 3.5 SD of the protein, either way, in both replicates (recomputed)).
Summary of the method: (§1)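 K562 cells at 2×10^6 cells/mL were exposed to 10 μM compound for 30 min, then aliquots were heated for 3 min across 48°C-58°C, pooled, and extracted in PBS containing 0.5% NP-40 at 4°C. The supernatant after 21,000xg for 90 min was taken as soluble protein and measured by TMTpro 16plex LC-MS/MS with channel sums equalised. Thermal stability is reported relative to control samples, with values from duplicates. Fold changes are given on a log2 scale.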

PIP5K1C isoform 3 (UniProt O60331) was tested. Which log2 fold change did it give?
The log2 fold change was inactive: -0.011.

For PIAS4 (UniProt Q8N2W9), which log2 fold change is on record?
Its log2 fold change is inactive: -0.207.

How did the log2 fold change turn out when PLA2G4B isoform 6 (UniProt P0C869) was run?
The log2 fold change was inactive: -0.15.

PGM1 isoform 2 (UniProt P36871) was tested. Which log2 fold change did it give?
The log2 fold change was inactive: 0.048.

With PEX5 isoform 4 (UniProt P50542) as the target, how does the log2 fold change read?
Its log2 fold change is inactive: -0.425.

Which log2 fold change does the source give for PHF14 (UniProt O94880) here?
Its log2 fold change is inactive: 0.147.

PIBF1 (UniProt Q8WXW3) was tested. Which log2 fold change did it give?
The log2 fold change was inactive: -0.227.

With PHOSPHO2 (UniProt Q8TCD6) as the target, how does the log2 fold change read?
The log2 fold change was inactive: -0.217.

For PINX1 (UniProt Q96BK5), which log2 fold change is on record?
The log2 fold change was inactive: 0.039.

How did the log2 fold change turn out when PKNOX1 (UniProt P55347) was run?
The log2 fold change was inactive: -0.044.

With PLEKHB2 isoform 2 (UniProt Q96CS7) as the target, how does the log2 fold change read?
Its log2 fold change is inactive: -0.217.

For PKN2 (UniProt Q16513), which log2 fold change is on record?
Its log2 fold change is inactive: -0.059.

With PHYKPL (UniProt Q8IUZ5) as the target, how does the log2 fold change read?
Its log2 fold change is inactive: -0.272.

Which log2 fold change does the source give for PHLPP1 (UniProt O60346) here?
Its log2 fold change is inactive: -0.268.

With PHETA1 isoform 4 (UniProt Q8N4B1) as the target, how does the log2 fold change read?
The log2 fold change was inactive: 0.133.

Which log2 fold change does the source give for PEX26 (UniProt Q7Z412) here?
The log2 fold change was inactive: 0.059.

These targets were tested with CN1CCN(c2nc(C3=C(c4c[nH]c5ccccc45)C(=O)NC3=O)c3ccccc3n2)CC1 [sotrastaurin] in the same assay as above.
Summary of the method: as §1

With PLD6 (UniProt Q8N2A8) as the target, how does the log2 fold change read?
Its log2 fold change is inactive: 0.048.

Which log2 fold change does the source give for PIP5K1C isoform 3 (UniProt O60331) here?
Its log2 fold change is inactive: 0.134.

With PLA2G4B isoform 6 (UniProt P0C869) as the target, how does the log2 fold change read?
The log2 fold change was inactive: -0.066.

With PFKFB1 (UniProt P16118) as the target, how does the log2 fold change read?
Its log2 fold change is inactive: -0.165.

PEX5 isoform 4 (UniProt P50542) was tested. Which log2 fold change did it give?
Its log2 fold change is inactive: -0.207.

How did the log2 fold change turn out when PHF14 (UniProt O94880) was run?
Its log2 fold change is inactive: 0.027.

Which log2 fold change does the source give for PIK3CA (UniProt P42336) here?
Its log2 fold change is inactive: -0.204.

With PINX1 (UniProt Q96BK5) as the target, how does the log2 fold change read?
The log2 fold change was inactive: -0.092.

PICK1 (UniProt Q9NRD5) was tested. Which log2 fold change did it give?
The log2 fold change was inactive: 0.171.

How did the log2 fold change turn out when PHYKPL (UniProt Q8IUZ5) was run?
The log2 fold change was inactive: -0.084.

How did the log2 fold change turn out when PKN3 (UniProt Q6P5Z2) was run?
The log2 fold change was inactive: 0.107.

With PIK3C2A (UniProt O00443) as the target, how does the log2 fold change read?
The log2 fold change was inactive: -0.151.

Each target was assayed with CN1CC[C@H](c2c(O)cc(O)c3c(=O)cc(-c4ccccc4Cl)oc23)[C@H](O)C1 [alvocidib] in the same assay as above.
Summary of the method: as §1

PLAUR (UniProt Q03405) was tested. Which log2 fold change did it give?
The log2 fold change was inactive: 0.045.

PLA2G4B isoform 6 (UniProt P0C869) was tested. Which log2 fold change did it give?
Its log2 fold change is inactive: -0.004.

With PIK3CA (UniProt P42336) as the target, how does the log2 fold change read?
Its log2 fold change is inactive: -0.101.

How did the log2 fold change turn out when PHOSPHO2 (UniProt Q8TCD6) was run?
The log2 fold change was inactive: -0.131.

How did the log2 fold change turn out when PINX1 (UniProt Q96BK5) was run?
Its log2 fold change is inactive: 0.428.

Which log2 fold change does the source give for PHLPP1 (UniProt O60346) here?
The log2 fold change was inactive: 0.023.

With PIGO (UniProt Q8TEQ8) as the target, how does the log2 fold change read?
The log2 fold change was inactive: 0.135.

For PEX26 (UniProt Q7Z412), which log2 fold change is on record?
The log2 fold change was inactive: -0.058.

The targets below were run with CN1CCc2c(c3ccccc3n2Cc2ccc(C(=O)NO)cc2)C1 [Tubastatin A] in the same assay as above.
Summary of the method: as §1

How did the log2 fold change turn out when PIP5K1C isoform 3 (UniProt O60331) was run?
Its log2 fold change is inactive: 0.143.

How did the log2 fold change turn out when PIAS4 (UniProt Q8N2W9) was run?
The log2 fold change was inactive: -0.057.

PLA2G4B isoform 6 (UniProt P0C869) was tested. Which log2 fold change did it give?
The log2 fold change was inactive: 0.266.

Which log2 fold change does the source give for PEX5 isoform 4 (UniProt P50542) here?
The log2 fold change was inactive: 0.077.

How did the log2 fold change turn out when PHF14 (UniProt O94880) was run?
Its log2 fold change is inactive: 0.046.

PIBF1 (UniProt Q8WXW3) was tested. Which log2 fold change did it give?
The log2 fold change was inactive: -0.019.

With PHOSPHO2 (UniProt Q8TCD6) as the target, how does the log2 fold change read?
Its log2 fold change is inactive: 0.047.

Which log2 fold change does the source give for PINX1 (UniProt Q96BK5) here?
Its log2 fold change is inactive: -0.018.

PKN2 (UniProt Q16513) was tested. Which log2 fold change did it give?
Its log2 fold change is inactive: 0.025.

For PHYKPL (UniProt Q8IUZ5), which log2 fold change is on record?
Its log2 fold change is inactive: -0.101.

How did the log2 fold change turn out when PHLPP1 (UniProt O60346) was run?
The log2 fold change was inactive: 0.035.

With PIGO (UniProt Q8TEQ8) as the target, how does the log2 fold change read?
The log2 fold change was inactive: -0.028.

For PEX26 (UniProt Q7Z412), which log2 fold change is on record?
Its log2 fold change is inactive: 0.016.

Each target was assayed with CNC(=O)C1=CC=CC=C1NC2=NC(=NC=C2Cl)NC3=C(C=C(C=C3)N4CCOCC4)OC in the same assay as above.
Summary of the method: as §1

Which log2 fold change does the source give for PLEK (UniProt P08567) here?
Its log2 fold change is inactive: 0.111.

PIP5K1C isoform 3 (UniProt O60331) was tested. Which log2 fold change did it give?
The log2 fold change was inactive: 0.011.

With PGM1 isoform 2 (UniProt P36871) as the target, how does the log2 fold change read?
The log2 fold change was inactive: -0.285.

PEX5 isoform 4 (UniProt P50542) was tested. Which log2 fold change did it give?
Its log2 fold change is inactive: 0.178.

Which log2 fold change does the source give for PIK3CA (UniProt P42336) here?
The log2 fold change was inactive: -0.042.

For PIBF1 (UniProt Q8WXW3), which log2 fold change is on record?
Its log2 fold change is inactive: 0.05.

PHRF1 (UniProt Q9P1Y6) was tested. Which log2 fold change did it give?
The log2 fold change was inactive: -0.022.

Which log2 fold change does the source give for PHOSPHO2 (UniProt Q8TCD6) here?
Its log2 fold change is inactive: 0.052.

Which log2 fold change does the source give for PINX1 (UniProt Q96BK5) here?
The log2 fold change was inactive: 0.

With PKNOX1 (UniProt P55347) as the target, how does the log2 fold change read?
The log2 fold change was inactive: 0.069.

Which log2 fold change does the source give for PKN2 (UniProt Q16513) here?
The log2 fold change was inactive: 0.037.

How did the log2 fold change turn out when PHYKPL (UniProt Q8IUZ5) was run?
Its log2 fold change is inactive: 0.016.

PIGO (UniProt Q8TEQ8) was tested. Which log2 fold change did it give?
Its log2 fold change is inactive: -0.054.

PIK3C2A (UniProt O00443) was tested. Which log2 fold change did it give?
The log2 fold change was inactive: -0.005.

Which log2 fold change does the source give for PEX26 (UniProt Q7Z412) here?
Its log2 fold change is inactive: -0.046.

The targets below were run with CNC(=O)c1ccc(Nc2ncc(C(F)(F)F)c(NCc3nccnc3N(C)S(C)(=O)=O)n2)cc1 [defactinib] in the same assay as above.
Summary of the method: as §1

How did the log2 fold change turn out when PLD6 (UniProt Q8N2A8) was run?
Its log2 fold change is inactive: 0.033.

Which log2 fold change does the source give for PLEK (UniProt P08567) here?
The log2 fold change was inactive: 0.16.

PLA2G4B isoform 6 (UniProt P0C869) was tested. Which log2 fold change did it give?
Its log2 fold change is inactive: 0.035.

For PEX5 isoform 4 (UniProt P50542), which log2 fold change is on record?
Its log2 fold change is inactive: 0.006.

How did the log2 fold change turn out when PHF14 (UniProt O94880) was run?
Its log2 fold change is inactive: 0.17.

Which log2 fold change does the source give for PKHD1 (UniProt P08F94) here?
Its log2 fold change is inactive: 0.03.

PKLR (UniProt F8W6W2) was tested. Which log2 fold change did it give?
Its log2 fold change is inactive: 0.06.

PGD (UniProt K7EM49) was tested. Which log2 fold change did it give?
Its log2 fold change is inactive: 0.116.

PHOSPHO2 (UniProt Q8TCD6) was tested. Which log2 fold change did it give?
Its log2 fold change is inactive: 0.013.

How did the log2 fold change turn out when PINX1 (UniProt Q96BK5) was run?
The log2 fold change was inactive: 0.478.

For PKN2 (UniProt Q16513), which log2 fold change is on record?
Its log2 fold change is inactive: -0.099.

How did the log2 fold change turn out when PIGO (UniProt Q8TEQ8) was run?
Its log2 fold change is inactive: -0.025.

With PEX26 (UniProt Q7Z412) as the target, how does the log2 fold change read?
The log2 fold change was inactive: 0.03.
